Drawing on paper PMC5024437, this text covers binding for 1 molecule.

These are yes or no findings as the source states them, for the method shown. Binding seen in cells or lysates may run through a third protein. Some entries that bind do so weakly or less than the wild type.

The experiment deals with T1, mSos1 (human (endogenous in A549)), Q07889.
T1 chain: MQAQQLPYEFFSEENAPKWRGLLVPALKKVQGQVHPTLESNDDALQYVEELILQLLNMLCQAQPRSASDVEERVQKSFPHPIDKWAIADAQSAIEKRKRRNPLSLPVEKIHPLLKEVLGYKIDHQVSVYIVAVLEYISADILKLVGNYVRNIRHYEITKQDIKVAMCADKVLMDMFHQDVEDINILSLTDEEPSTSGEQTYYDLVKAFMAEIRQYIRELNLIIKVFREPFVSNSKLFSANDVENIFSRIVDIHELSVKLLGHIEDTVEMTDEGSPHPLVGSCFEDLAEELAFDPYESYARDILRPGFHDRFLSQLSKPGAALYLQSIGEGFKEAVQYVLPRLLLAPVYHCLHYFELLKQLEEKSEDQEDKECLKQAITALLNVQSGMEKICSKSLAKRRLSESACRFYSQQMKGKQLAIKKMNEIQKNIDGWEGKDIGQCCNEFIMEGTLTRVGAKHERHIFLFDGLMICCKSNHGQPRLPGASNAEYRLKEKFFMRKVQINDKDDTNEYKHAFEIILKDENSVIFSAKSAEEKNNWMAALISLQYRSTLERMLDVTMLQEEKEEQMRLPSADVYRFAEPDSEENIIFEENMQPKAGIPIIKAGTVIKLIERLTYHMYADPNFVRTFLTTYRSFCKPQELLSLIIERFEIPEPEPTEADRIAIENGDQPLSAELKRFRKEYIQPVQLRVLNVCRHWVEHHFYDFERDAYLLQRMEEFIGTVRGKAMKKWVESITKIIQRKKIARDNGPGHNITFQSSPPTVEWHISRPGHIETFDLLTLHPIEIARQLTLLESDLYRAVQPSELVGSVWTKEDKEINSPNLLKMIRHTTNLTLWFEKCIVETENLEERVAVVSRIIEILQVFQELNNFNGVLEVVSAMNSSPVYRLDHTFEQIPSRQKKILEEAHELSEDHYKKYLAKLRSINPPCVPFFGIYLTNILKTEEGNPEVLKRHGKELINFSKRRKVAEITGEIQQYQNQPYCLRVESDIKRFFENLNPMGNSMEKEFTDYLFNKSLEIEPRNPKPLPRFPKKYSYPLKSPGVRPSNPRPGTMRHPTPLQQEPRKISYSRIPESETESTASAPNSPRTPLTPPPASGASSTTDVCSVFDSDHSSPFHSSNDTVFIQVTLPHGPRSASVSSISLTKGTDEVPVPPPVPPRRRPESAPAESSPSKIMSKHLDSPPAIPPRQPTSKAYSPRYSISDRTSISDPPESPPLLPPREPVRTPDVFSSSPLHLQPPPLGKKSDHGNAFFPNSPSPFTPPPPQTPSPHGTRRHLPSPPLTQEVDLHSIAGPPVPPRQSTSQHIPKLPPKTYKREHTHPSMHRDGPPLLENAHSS
The experiment can be described thus: co-IP; A549 and A549 + ITSN-1s (stable myc-ITSN-1s) cell lysates, 500 ug total protein, lysis buffer 50 mM Tris-HCl pH 8.0, 150 mM NaCl, 1 % NP-40; IP with 3 ug mSos1 or Cbl Ab and protein A/G, WB with Rac1 or Eps8 Ab; densitometry as percentage of control. As to conditions: remark: other sources report otherwise.

B1: Eps8, Q12929 1-822 (natural protein)
chain: MNGHISNHPSSFGMYPSQMNGYGSSPTFSQTDREHGSKTSAKALYEQRKNYARDSVSSVSDISQYRVEHLTTFVLDRKDAMITVDDGIRKLKLLDAKGKVWTQDMILQVDDRAVSLIDLESKNELENFPLNTIQHCQAVMHSCSYDSVLALVCKEPTQNKPDLHLFQCDEVKANLISEDIESAISDSKGGKQKRRPDALRMISNADPSIPPPPRAPAPAPPGTVTQVDVRSRVAAWSAWAADQGDFEKPRQYHEQEETPEMMAARIDRDVQILNHILDDIEFFITKLQKAAEAFSELSKRKKNKKGKRKGPGEGVLTLRAKPPPPDEFLDCFQKFKHGFNLLAKLKSHIQNPSAADLVHFLFTPLNMVVQATGGPELASSVLSPLLNKDTIDFLNYTVNGDERQLWMSLGGTWMKARAEWPKEQFIPPYVPRFRNGWEPPMLNFMGATMEQDLYQLAESVANVAEHQRKQEIKRLSTEHSSVSEYHPADGYAFSSNIYTRGSHLDQGEAAVAFKPTSNRHIDRNYEPLKTQPKKYAKSKYDFVARNNSELSVLKDDILEILDDRKQWWKVRNASGDSGFVPNNILDIVRPPESGLGRADPPYTHTIQKQRMEYGPRPADTPPAPSPPPTPAPVPVPLPPSTPAPVPVSKVPANITRQNSSSSDSGGSIVRDSQRHKQLPVDRRKSQMEEVQDELIHRLTIGRSAAQKKFHVPRQNVPVINITYDSTPEDVKTWLQSKGFNPVTVNSLGVLNGAQLFSLNKDELRTVCPEGARVYSQITVQKAALEDSSGSSELQEIMRRRQEKISAAASDSGVESFDEGSSH
For the molecule B1, the binding entry was “binds”.
